Here are results for 5 substances from patent US20100222548A1 (priority 2006, published 2010).

This series can be described thus: general procedure: solution-phase peptide synthesis.

Consider “N-[(Benzyloxy)carbonyl]glycyl-N-isobutylglycylglycyl-N-isobutylglycylglycine”, for which, under “late stage modification step”, the step yield amounted to 96%.

“N-[(Benzyloxy)carbonyl]glycyl-N-isobutylglycylglycyl-N-isobutylglycylglycine ethyl ester” gave a step yield (coupling step) of 67%.

In turn, “N-[(Benzyloxy)carbonyl]glycyl-N-isobutylglycylglycyl-N-isobutylglycylglycyl-N-isobutylglycylglycine” returned a step yield (late stage modification step) of 85%.

Under “late stage modification step”, “N-[(Benzyloxy)carbonyl]glycyl-N-isobutylglycylglycyl-N-isobutylglycylglycyl-N-isobutylglycylglycyl-N-isobutylglycylglycine” yielded a step yield of 94%.

In the case of “N-[(Benzyloxy)carbonyl]glycyl-N-isobutylglycylglycyl-N-isobutylglycylglycyl-N-isobutylglycylglycyl-N-isobutylglycylglycine ethyl ester”, the step yield (coupling step) amounted to 52%.
